Assay results: US20070105759A1 (priority 2003, published 2007)

By UniProt entry, the sequences of proteins in these tests, tags left out. Where a name states a change or a piece, a line headed by the entry shows the natural chain unless it says otherwise.
UniProt Q01726: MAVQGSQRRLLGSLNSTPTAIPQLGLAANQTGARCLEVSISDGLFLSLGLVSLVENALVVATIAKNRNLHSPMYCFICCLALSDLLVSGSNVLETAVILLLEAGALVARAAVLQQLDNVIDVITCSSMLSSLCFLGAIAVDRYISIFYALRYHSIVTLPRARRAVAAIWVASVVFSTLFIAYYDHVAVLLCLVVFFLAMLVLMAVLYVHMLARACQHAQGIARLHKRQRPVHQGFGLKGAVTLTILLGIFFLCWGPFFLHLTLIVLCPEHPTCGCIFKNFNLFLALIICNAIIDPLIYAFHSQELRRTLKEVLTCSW

Target: MC1 (Homo sapiens, UniProt Q01726)

## CC(=O)N[C@@H](CS(=O)(=O)O)C(=O)N[C@@H](CCCNC(=N)N)C(=O)N[C@H]1CSSC[C@@H](C(N)=O)NC(=O)[C@H](Cc2c[nH]c3ccccc23)NC(=O)[C@H](CCCNC(=N)N)NC(=O)[C@@H](Cc2ccccc2)NC(=O)[C@H](Cc2c[nH]cn2)NC(=O)[C@H](C)NC1=O [Compound No. 2, Ac-Cya-Arg-cyclo[Cys-Ala-His-D-Phe-Arg-Trp-Cys]-NH2]
  MC1/MC4 selectivity: 10.70
